Assay results reported in US20100197768A1.
No constants are given. Whether binding was seen depends on the method and setting. Some results given as binding are weak or reduced against the parent protein; the word gives no strength.

The chains behind the UniProt entries cited, without tags or fusion partners. Where a name states a change or a piece, a line headed by the entry shows the natural chain unless it says otherwise. A line that says so, or that is headed by a name, gives the form on record, which may keep a tag or linker.
hA3G-DR (recombinant hA3G-4×His, DNase I and RNase A treated) (Q9HC16, form named): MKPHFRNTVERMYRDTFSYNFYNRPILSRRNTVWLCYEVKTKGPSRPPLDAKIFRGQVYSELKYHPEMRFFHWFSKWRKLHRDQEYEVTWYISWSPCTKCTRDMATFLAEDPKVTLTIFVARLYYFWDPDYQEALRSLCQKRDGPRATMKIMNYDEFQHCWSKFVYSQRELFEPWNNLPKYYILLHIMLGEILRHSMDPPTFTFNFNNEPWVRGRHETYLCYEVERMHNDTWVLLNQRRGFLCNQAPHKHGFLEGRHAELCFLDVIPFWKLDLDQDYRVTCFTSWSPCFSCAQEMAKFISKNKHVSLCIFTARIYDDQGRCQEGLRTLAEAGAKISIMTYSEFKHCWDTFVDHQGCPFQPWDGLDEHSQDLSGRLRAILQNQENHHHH

What was measured:
[1] = biological target: hA3G-DR (recombinant hA3G-4×His, DNase I and RNase A treated) (human) (UniProt Q9HC16); experiment: analytical gel filtration (Superose 6) of hA3G-DR
[2] = biological target: hA3G-DR (recombinant hA3G-4×His, DNase I and RNase A treated) (human) (UniProt Q9HC16); experiment: SAXS forward scattering of RNase treated recombinant hA3G-4×His

- binding [1]: binds
- binding [2]: binds
Substance: hA3G-DR (recombinant hA3G-4×His, DNase I and RNase A treated) (from UniProt Q9HC16 1-384) (enzyme)
